Laboratory results from PMC3155019, “Dynamics of the Phosphoinositide 3-Kinase p110δ Interaction with p85α and Membranes Reveals Aspects of Regulation Distinct from p110α” (Structure(London, England:1993), 2011).
No constants are given. Whether binding was seen depends on the method and setting. Some binding calls cover weakened binding; strength is not graded here.

Amino acid sequences for entries named in this document (tags omitted). A change or cut given only in a name is not applied to a line headed by its entry.
UniProt O00329: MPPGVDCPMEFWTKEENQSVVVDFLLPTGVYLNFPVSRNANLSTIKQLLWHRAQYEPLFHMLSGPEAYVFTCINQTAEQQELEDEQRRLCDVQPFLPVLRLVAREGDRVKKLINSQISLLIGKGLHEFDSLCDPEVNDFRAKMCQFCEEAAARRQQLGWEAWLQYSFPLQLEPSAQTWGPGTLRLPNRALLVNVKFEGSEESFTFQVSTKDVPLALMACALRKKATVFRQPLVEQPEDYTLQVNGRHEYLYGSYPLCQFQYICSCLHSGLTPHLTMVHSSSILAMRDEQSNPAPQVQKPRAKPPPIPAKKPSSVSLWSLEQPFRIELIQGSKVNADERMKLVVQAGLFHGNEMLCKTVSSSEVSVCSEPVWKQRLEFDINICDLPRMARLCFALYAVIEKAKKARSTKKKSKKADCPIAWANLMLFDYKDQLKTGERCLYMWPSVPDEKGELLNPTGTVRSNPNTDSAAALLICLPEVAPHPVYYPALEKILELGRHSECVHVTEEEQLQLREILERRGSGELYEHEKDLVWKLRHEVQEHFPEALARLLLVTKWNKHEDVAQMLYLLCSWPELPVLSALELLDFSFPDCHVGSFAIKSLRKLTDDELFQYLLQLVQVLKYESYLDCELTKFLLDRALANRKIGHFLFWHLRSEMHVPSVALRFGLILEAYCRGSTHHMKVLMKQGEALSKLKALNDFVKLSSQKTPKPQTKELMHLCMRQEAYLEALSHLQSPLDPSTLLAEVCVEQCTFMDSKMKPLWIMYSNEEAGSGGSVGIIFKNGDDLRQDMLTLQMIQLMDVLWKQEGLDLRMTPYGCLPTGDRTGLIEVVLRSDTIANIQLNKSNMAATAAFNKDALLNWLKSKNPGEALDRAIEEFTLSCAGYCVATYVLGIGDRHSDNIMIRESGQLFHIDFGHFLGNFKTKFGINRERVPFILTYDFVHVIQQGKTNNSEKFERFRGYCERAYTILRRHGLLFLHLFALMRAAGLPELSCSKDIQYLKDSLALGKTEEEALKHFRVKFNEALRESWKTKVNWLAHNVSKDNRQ

How the values were obtained:
[1] = biological target: full length p110δ/p85α K379E complex (UniProt O00329); assay: HDX-MS; purified full length p110δ/p85α complexes (wild type, K379E, Y685A, double mutant) with or without PDGFR pY; two time points (3 and 1000 s); both purified
[2] = biological target: full length p110δ/p85α complex, wild type (UniProt O00329); assay: as above
[3] = biological target: full length p110δ/p85α Y685A complex (UniProt O00329); assay: as above
[4] = biological target: full length p110δ/p85α K379E, Y685A double mutant complex (UniProt O00329); assay: as above
[5] = biological target: p110δ+p85α nicSH2 complex (human | , UniProt O00329 1-1044; P27986 322-724); assay: HDX-MS; purified p110δ+nicSH2 complex with or without PDGFR pY (200 μM before addition of deuterium, 40 μM by the legends), equilibrated 10 min; 82% D2O, 10 mM HEPES pD 7.2, 50 mM NaCl, 2 mM DTT; 3 to 3000 s at 23°C; both purified

- binding [1]: binds
- binding [2]: binds
- binding [3]: binds
- binding [4]: binds
- binding [5]: binds
B1: PDGFR bis-phosphorylated pY peptide (residues 735–767, with pY740 and pY751) (peptide)
peptide: ESDGGYMDMSKDESIDYVPMLDMKGDIKYADIE
modifications: phosphotyrosine at 740 and 751 (pY740, pY751)
